Experimental data taken from patent US20050054822A1.
Results are given in words; binding and its absence hold for the method and conditions named. In cells and extracts the contact can be indirect. Binding can be weak; no strength is given. Sequences can lack the tags named with a protein.

Biological target: apolipoprotein A-I (ApoA-I)
Experiment: copurification on anti-FLAG antibody affinity column from 293 conditioned medium

binding: binds
B1: FLAG-HIN-2 (mature human HIN-2 with a carboxy-terminal Flag tag, secreted from 293 cells) (ligand, not shown: small tags and cut ends)
chain: FLINKVPLPVDKLAPLPLDNILPFMDPLKLLLKTLGISVEHLVEGLRKCVNELGPEASEAVKKLLEALSHLV
